Where two headings read alike, the source gives them in different places. Results are given in words; binding and its absence hold for the method and conditions named. For part of these data: Binding seen in cells or lysates may run through a third protein. Some results given as binding are weak or reduced against the parent protein; the word gives no strength. For part of these data: Tags and fused reporters may be left off the sequences shown.
Key:
[1] = molecular target: GST-tagged merlin FERM domain (22-312) (human) (UniProt P35240); assay: pull-down
[2] = molecular target: GST-tagged moesin FERM domain (UniProt P26038); assay: pull-down
[3] = molecular target: moesin FERM domain, GST tag cleaved (UniProt P26038 2-295); assay: fluorescence polarisation
[4] = molecular target: T1, FITC-labeled ZNF622_(341-356) (human) (UniProt Q969S3); assay: fluorescence polarisation
T1 sequence (peptide, FITC label): LEFADFYDFRSSYPDH

Chains of the proteins cited; added tags and fusions are not shown. Lines headed by an entry give the natural chain unless they say otherwise; changes in a name come on top. Residues count along the entry.
UniProt P35240, residues 22-312: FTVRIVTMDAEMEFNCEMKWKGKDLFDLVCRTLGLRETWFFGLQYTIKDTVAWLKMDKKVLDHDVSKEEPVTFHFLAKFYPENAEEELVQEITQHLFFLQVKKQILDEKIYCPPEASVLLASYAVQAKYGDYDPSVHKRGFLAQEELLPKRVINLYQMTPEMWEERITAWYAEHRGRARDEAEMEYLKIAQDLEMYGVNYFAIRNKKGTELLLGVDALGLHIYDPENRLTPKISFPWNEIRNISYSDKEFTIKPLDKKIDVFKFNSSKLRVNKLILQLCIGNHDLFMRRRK
UniProt P26038, residues 2-295: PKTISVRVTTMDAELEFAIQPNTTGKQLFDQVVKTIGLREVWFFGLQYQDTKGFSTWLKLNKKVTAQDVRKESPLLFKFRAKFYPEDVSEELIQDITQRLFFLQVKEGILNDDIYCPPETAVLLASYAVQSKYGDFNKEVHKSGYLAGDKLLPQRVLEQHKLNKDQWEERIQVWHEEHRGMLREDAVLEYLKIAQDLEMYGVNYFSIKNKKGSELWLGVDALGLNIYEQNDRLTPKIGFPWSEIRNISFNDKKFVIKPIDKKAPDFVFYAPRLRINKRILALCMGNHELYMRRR
UniProt Q969S3: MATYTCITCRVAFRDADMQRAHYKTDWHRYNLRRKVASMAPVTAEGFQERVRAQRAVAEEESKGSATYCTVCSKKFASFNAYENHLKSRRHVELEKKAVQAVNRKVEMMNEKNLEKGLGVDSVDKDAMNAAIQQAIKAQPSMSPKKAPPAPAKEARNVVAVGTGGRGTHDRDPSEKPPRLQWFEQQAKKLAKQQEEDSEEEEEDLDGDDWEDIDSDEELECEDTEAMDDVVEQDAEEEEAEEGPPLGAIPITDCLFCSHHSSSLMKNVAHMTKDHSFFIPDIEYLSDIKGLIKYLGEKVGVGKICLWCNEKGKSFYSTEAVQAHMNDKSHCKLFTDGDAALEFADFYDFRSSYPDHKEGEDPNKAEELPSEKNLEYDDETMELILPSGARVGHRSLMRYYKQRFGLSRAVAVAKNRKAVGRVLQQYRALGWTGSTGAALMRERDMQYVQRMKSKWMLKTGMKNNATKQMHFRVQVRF
UniProt Q8IZU9: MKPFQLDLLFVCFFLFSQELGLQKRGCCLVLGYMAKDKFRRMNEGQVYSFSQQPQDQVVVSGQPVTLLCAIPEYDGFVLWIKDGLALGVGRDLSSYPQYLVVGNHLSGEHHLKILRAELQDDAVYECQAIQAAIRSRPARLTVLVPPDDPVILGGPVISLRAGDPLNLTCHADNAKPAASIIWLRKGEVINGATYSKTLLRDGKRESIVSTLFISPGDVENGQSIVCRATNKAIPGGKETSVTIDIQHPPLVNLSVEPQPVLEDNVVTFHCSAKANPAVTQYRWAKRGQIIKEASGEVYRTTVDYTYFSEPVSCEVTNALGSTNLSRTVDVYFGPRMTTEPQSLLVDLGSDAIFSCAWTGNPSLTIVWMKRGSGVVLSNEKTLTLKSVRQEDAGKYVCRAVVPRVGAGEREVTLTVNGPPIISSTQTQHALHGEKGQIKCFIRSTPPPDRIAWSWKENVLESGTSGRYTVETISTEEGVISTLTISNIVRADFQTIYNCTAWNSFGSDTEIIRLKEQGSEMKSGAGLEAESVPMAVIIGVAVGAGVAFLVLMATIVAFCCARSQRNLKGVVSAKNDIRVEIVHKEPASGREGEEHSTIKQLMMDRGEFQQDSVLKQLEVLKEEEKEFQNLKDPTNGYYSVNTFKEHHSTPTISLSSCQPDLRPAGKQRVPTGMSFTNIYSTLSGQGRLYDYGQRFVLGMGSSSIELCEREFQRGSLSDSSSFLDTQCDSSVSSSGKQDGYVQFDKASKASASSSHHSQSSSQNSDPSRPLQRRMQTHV
UniProt O14745: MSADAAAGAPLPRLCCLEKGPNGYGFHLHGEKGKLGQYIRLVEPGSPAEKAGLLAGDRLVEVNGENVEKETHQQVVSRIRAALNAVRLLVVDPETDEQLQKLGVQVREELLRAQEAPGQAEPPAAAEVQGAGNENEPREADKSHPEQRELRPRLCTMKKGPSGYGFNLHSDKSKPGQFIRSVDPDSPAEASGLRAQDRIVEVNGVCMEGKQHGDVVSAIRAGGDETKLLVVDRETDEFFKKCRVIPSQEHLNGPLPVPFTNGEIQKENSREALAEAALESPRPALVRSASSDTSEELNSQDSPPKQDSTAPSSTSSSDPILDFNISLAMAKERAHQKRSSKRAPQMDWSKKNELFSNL
UniProt P57082: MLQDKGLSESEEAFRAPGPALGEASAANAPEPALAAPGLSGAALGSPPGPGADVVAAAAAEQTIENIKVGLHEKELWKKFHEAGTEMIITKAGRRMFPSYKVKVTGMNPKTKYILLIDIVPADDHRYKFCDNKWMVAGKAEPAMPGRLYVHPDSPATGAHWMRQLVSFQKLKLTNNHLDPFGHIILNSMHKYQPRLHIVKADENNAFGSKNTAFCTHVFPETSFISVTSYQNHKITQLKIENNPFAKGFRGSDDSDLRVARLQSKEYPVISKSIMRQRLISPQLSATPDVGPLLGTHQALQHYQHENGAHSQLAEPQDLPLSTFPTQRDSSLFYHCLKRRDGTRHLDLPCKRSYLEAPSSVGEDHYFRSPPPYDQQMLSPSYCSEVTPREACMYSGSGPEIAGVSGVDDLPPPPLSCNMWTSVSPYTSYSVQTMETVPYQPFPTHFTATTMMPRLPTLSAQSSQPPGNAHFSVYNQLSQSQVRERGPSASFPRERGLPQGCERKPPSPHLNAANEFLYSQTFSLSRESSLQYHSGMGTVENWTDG
UniProt P15311, residues 2-296: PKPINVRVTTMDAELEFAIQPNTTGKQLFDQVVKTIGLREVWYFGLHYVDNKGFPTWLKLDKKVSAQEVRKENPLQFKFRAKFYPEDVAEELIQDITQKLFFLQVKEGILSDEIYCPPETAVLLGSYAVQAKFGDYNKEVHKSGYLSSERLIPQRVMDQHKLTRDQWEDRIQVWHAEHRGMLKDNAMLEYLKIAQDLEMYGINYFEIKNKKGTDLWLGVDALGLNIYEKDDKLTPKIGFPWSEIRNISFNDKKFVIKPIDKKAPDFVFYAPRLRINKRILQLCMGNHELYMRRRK
UniProt Q9NQU5: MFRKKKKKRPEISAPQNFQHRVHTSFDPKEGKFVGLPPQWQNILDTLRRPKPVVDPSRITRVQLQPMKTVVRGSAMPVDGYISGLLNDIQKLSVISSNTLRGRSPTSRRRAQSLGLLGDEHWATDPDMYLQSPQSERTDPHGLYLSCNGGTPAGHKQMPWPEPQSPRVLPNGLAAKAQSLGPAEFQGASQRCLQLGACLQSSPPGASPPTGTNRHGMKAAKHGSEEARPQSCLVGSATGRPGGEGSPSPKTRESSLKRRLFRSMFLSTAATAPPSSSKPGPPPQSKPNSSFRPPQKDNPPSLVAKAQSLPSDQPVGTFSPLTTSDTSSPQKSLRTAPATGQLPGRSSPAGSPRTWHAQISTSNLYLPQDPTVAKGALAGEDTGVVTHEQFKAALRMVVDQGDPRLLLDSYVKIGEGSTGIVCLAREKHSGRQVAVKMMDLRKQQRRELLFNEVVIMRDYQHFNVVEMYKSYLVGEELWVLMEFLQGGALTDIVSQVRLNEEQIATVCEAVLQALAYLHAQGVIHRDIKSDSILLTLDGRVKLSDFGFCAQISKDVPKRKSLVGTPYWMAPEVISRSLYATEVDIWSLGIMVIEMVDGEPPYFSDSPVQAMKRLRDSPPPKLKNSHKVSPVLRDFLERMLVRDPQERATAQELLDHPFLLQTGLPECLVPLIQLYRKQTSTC
UniProt Q16665: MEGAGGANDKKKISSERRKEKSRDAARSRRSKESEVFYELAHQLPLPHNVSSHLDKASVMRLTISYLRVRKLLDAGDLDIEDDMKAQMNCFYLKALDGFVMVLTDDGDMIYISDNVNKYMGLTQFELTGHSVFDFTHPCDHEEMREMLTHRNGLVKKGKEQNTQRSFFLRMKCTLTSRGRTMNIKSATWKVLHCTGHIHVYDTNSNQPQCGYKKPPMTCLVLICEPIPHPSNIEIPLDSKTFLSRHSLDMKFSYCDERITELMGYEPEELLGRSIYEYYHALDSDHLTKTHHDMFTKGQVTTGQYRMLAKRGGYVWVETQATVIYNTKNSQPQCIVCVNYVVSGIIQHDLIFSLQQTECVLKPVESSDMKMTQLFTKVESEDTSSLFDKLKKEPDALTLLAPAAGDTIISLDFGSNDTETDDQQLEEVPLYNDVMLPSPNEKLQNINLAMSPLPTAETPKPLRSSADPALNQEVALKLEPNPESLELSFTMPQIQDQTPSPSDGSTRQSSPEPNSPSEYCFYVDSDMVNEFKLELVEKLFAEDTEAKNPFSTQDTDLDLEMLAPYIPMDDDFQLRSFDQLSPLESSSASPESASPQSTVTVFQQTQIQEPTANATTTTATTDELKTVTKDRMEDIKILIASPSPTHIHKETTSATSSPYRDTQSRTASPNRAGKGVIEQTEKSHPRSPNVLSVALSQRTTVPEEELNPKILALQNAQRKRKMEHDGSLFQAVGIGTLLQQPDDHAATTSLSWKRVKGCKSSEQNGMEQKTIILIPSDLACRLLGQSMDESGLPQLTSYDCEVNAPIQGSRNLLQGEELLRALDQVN
UniProt Q8IVT2: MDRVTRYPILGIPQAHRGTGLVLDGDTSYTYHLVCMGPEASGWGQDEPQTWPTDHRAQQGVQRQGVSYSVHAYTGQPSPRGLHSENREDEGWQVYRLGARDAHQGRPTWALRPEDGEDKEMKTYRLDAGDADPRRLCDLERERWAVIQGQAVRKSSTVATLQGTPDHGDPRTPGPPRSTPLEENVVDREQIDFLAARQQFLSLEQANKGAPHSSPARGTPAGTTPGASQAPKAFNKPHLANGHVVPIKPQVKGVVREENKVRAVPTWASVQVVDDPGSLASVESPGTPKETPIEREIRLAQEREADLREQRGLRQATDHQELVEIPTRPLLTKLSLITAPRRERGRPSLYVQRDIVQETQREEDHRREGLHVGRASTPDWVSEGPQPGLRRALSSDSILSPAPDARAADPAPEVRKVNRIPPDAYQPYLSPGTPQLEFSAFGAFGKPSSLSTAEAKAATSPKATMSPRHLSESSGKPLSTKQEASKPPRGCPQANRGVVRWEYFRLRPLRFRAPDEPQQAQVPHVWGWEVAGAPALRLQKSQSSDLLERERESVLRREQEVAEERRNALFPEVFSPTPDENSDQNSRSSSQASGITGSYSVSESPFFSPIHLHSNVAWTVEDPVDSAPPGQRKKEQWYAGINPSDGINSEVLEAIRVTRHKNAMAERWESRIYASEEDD

[5] = molecular target: T2, FITC-labeled KIRREL3_(637-652) (human) (UniProt Q8IZU9); assay: fluorescence polarisation
T2 sequence (peptide, FITC label): YYSVNTFKEHHSTPTI

[6] = molecular target: T3, FITC-labeled EBP50_(343-358) (UniProt O14745); assay: fluorescence polarisation
T3 sequence (peptide, FITC label): APQMDWSKKNELFSNL

[7] = molecular target: T4, FITC-labeled TBX4_(428-443) (human) (UniProt P57082); assay: fluorescence polarisation
T4 sequence (peptide, FITC label): SYSVQTMETVPYQPFP

[8] = molecular target: T5, FITC-labeled FAM83G_(111-126) (human); assay: fluorescence polarisation
T5 sequence (peptide, FITC label): AEPLPSLEYWPQKSDR

[9] = molecular target: T1, FITC-labeled ZNF622_(341-356) (human); assay: fluorescence polarisation; remark: listed apart in the source
[10] = molecular target: T2, FITC-labeled KIRREL3_(637-652) (human); assay: fluorescence polarisation; remark: listed apart in the source
[11] = molecular target: T6, FITC-labeled LATS1_(73-88) (human); assay: fluorescence polarisation
T6 sequence (peptide, FITC label): THHKALQEIRNSLLPF

[12] = molecular target: T4, FITC-labeled TBX4_(428-443) (human); assay: fluorescence polarisation; remark: listed apart in the source
[13] = molecular target: T3, FITC-labeled EBP50_(343-358); assay: fluorescence polarisation; remark: listed apart in the source
[14] = molecular target: GST-tagged moesin FERM domain (UniProt P26038); assay: competitive ProP-PD selection
[15] = molecular target: GST-tagged merlin FERM domain (22-312) (human) (UniProt P35240); assay: ELISA
[16] = molecular target: GST-tagged ezrin FERM domain (UniProt P15311); assay: ELISA
[17] = molecular target: GST-tagged moesin FERM domain (UniProt P26038); assay: ELISA

In the case of “full-length PAK6 (HA-PAK6) (from UniProt Q9NQU5 1-681)”, the binding [1] is reported as “binds”.

In the case of “full-length HIF1A (HA-HIF1-alpha) (from UniProt Q16665 1-826)”, the binding [2] is reported as “binds”.

With “HIF1A_(37-52), unlabeled peptide (from UniProt Q16665 37-52)” the binding [3] was “binds”.

In the case of “moesin FERM domain, GST tag cleaved (from UniProt P26038 2-295) (domain or fragment)”, the binding [4] is reported as “binds”, the binding [5] is reported as “binds” and the binding [6] is reported as “binds”. The binding [7] was “binds”, the binding [8] was “binds weakly” and the binding [9] was “binds”. The binding [10] was “binds”, the binding [11] was “binds” and the binding [12] was “binds”. The binding [13] was “binds”.

With “HIF1A_(37-52), phage-displayed (from UniProt Q16665 37-52) (peptide)” the binding [14] was “binds”.

B1: LATS1_(73-88), phage-displayed (peptide)
peptide: THHKALQEIRNSLLPF
For B1, the binding [14] was “binds”.

B2: FAM83G_(111-126), phage-displayed (peptide)
peptide: AEPLPSLEYWPQKSDR
For B2, the binding [15] was “binds”, the binding [16] was “binds” and the binding [17] was “binds”.

B3: MISP_(595-610), unlabeled peptide (peptide, UniProt Q8IVT2 595-610)
peptide: ITGSYSVSESPFFSPI
With B3 the binding [3] was “binds”.

B4: RRBP1_(1365-1380), phage-displayed (peptide)
peptide: RAATRLQELLKTTQEQ
In the case of B4, the binding [15] is reported as “binds”, the binding [16] is reported as “binds” and the binding [17] is reported as “binds”.

B5: FAM83G_(111-126) with the N-terminal region deleted (AEPLP deletion), phage-displayed (peptide)
peptide: SLEYWPQKSDR
With B5 the binding [15] was “binds”.

B6: LATS1_(73-88), unlabeled peptide (peptide)
peptide: THHKALQEIRNSLLPF
In the case of B6, the binding [3] is reported as “binds”.

B7: TBX4 peptide with N-terminal extension of three amino acids, unlabeled (peptide, UniProt P57082 425-443)
peptide: PYTSYSVQTMETVPYQPFP
For B7, the binding [3] was “binds”.

B8: FAM83G_(111-126) with the C-terminal region deleted (KSDR deletion), phage-displayed (peptide)
peptide: AEPLPSLEYWPQ
B8 was tested, and the binding [15] was “binds”.

B9: ZNF622_(341-356), unlabeled peptide (peptide, UniProt Q969S3 341-356)
peptide: LEFADFYDFRSSYPDH
In the case of B9, the binding [3] is reported as “binds”.

B10: full-length RRBP1 (RRBP1-GFP) (protein, UniProt Q9P2E9 1-1410)
chain: MDIYDTQTLGVVVFGGFMVVSAIGIFLVSTFSMKETSYEEALANQRKEMAKTHHQKVEKKKKEKTVEKKGKTKKKEEKPNGKIPDHDPAPNVTVLLREPVRAPAVAVAPTPVQPPIIVAPVATVPAMPQEKLASSPKDKKKKEKKVAKVEPAVSSVVNSIQVLTSKAAILETAPKEVPMVVVPPVGAKGNTPATGTTQGKKAEGTQNQSKKAEGAPNQGRKAEGTPNQGKKTEGTPNQGKKAEGTPNQGKKAEGTPNQGKKAEGAQNQGKKVDTTPNQGKKVEGAPTQGRKAEGAQNQAKKVEGAQNQGKKAEGAQNQGKKGEGAQNQGKKAEGAQNQGKKAEGAQNQGKKAEGAQNQGKKAEGAQNQGKKAEGAQNQGKKAEGAQNQGKKVEGAQNQGKKAEGAQNQGKKAEGAQNQGKKAEGAQNQGKKAEGAQNQGKKAEGAQNQGKKAEGAQNQGKKAEGAQNQGKKVEGAQNQGKKAEGAQNQGKKAEGAQNQGKKAEGAQNQGQKGEGAQNQGKKTEGAQGKKAERSPNQGKKGEGAPIQGKKADSVANQGTKVEGITNQGKKAEGSPSEGKKAEGSPNQGKKADAAANQGKKTESASVQGRNTDVAQSPEAPKQEAPAKKKSGSKKKGEPGPPDADGPLYLPYKTLVSTVGSMVFNEGEAQRLIEILSEKAGIIQDTWHKATQKGDPVAILKRQLEEKEKLLATEQEDAAVAKSKLRELNKEMAAEKAKAAAGEAKVKKQLVAREQEITAVQARMQASYREHVKEVQQLQGKIRTLQEQLENGPNTQLARLQQENSILRDALNQATSQVESKQNAELAKLRQELSKVSKELVEKSEAVRQDEQQRKALEAKAAAFEKQVLQLQASHRESEEALQKRLDEVSRELCHTQSSHASLRADAEKAQEQQQQMAELHSKLQSSEAEVRSKCEELSGLHGQLQEARAENSQLTERIRSIEALLEAGQARDAQDVQASQAEADQQQTRLKELESQVSGLEKEAIELREAVEQQKVKNNDLREKNWKAMEALATAEQACKEKLLSLTQAKEESEKQLCLIEAQTMEALLALLPELSVLAQQNYTEWLQDLKEKGPTLLKHPPAPAEPSSDLASKLREAEETQSTLQAECDQYRSILAETEGMLRDLQKSVEEEEQVWRAKVGAAEEELQKSRVTVKHLEEIVEKLKGELESSDQVREHTSHLEAELEKHMAAASAECQNYAKEVAGLRQLLLESQSQLDAAKSEAQKQSDELALVRQQLSEMKSHVEDGDIAGAPASSPEAPPAEQDPVQLKTQLEWTEAILEDEQTQRQKLTAEFEEAQTSACRLQEELEKLRTAGPLESSETEEASQLKERLEKEKKLTSDLGRAATRLQELLKTTQEQLAREKDTVKKLQEQLEKAEDGSSSKEGTSV
B10 was tested, and the binding [1] was “binds”.

B11: TBX4_(428-443), unlabeled peptide (peptide, UniProt P57082 428-443)
peptide: SYSVQTMETVPYQPFP
For B11, the binding [3] was “binds”.

B12: EBP50_(343-358), unlabeled peptide (peptide, UniProt O14745 343-358)
peptide: APQMDWSKKNELFSNL
B12 was tested, and the binding [3] was “binds”.
